Measured values from the supplement of paper PMC12067093, “Discovery and optimisation of a covalent ligand for TRIM25 and its application to targeted protein ubiquitination” (Chemical Science, 2025).
This is one part of the list.

Compound: Cc1cc(ccc1-c1ccccc1)C(=O)N1CCCN(CC1)C(=O)CCl [compound 10]
Assay: probe-labelled cysteine peptide fold change vs DMSO (competition) (log2 fold change); higher = less target engagement (more negative = stronger competition)
Details: THP-1, incubation time: 4 h
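Also: competitive profiling in live THP-1 cells: cysteine peptides tagged with an iodoacetamide desthiobiotin (IA-DTB) probe, intensity after compound treatment relative to DMSO-treated cells.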

Target | probe-labelled cysteine peptide fold change (10 µM) | probe-labelled cysteine peptide fold change (50 µM)
KMT5C_Q86Y97_231_NEHCECHTCER (UniProt Q86Y97) | 0.585 | 0.831
KNL1_Q8NG31_1301_AQVESCQLNNR (UniProt Q8NG31) | -0.271 | -0.49
KLHL26_Q53HC5_383_SGEGAVDACYR (UniProt Q53HC5) | 0.0982 | 0.0933
LCP1_P13796_164_HVIPMNPNTNDLFNAVGDGIVLCK (UniProt P13796) | 0.209 | 0.0458
KPNB1_Q14974_228_HFIMQVVCEATQCPDTR (UniProt Q14974) | 0.0691 | 0.14
LAT2_Q9GZY6_160_TTETGAQQEGIGGLCR (UniProt Q9GZY6) | -0.0497 | -0.326
LARP4B_Q92615_167_TLEFCLSR (UniProt Q92615) | 0.0369 | -0.0021
LCP1_P13796_618_MVMTVFACLMGK (UniProt P13796) | -0.0499 | 0.0355
KMT2C_Q8NEZ4_638_HICGEDQIEDK (UniProt Q8NEZ4) | 0.254 | 0.67
LANCL1_O43813_363_FAEWCLEYGEHGCR (UniProt O43813) | -0.177 | 0.272
LENG8_Q96PV6_584_SLCMVK (UniProt Q96PV6) | -0.193 | -1.09
KIF2C_Q99661_40_SCVSVEWAEGGATK (UniProt Q99661) | 0.219 | 0.0615
KITLG_P21583_114_LVNIVDDLVECVK (UniProt P21583) | 0.152 | -0.209
KNTC1_P50748_390_CLTEALPENR (UniProt P50748) | 0.158 | 0.0608
KIF3A_Q9Y496_230_SHAIFTITIECSEK (UniProt Q9Y496) | -0.0999 | 0.132
LAMTOR5_O43504_33_NPSIVGVLCTDSQGLNLGCR (UniProt O43504) | 0.116 | -0.26
KIZ_Q2M2Z5_50_LYEYNQSDTCR (UniProt Q2M2Z5) | -0.183 | 0.0156
KRAS_P01116_118_CDLPSR (UniProt P01116) | -0.137 | -0.146
LARP4B_Q92615_590_EPSVPASCAVSATYER (UniProt Q92615) | -0.245 | -0.00819
KPNB1_Q14974_392_YRDAAVMAFGCILEGPEPSQLK (UniProt Q14974) | -0.0348 | 0.00782
LAP3_P28838_129_AAVAAGCR (UniProt P28838) | -0.15 | 0.0259

Target | probe-labelled cysteine peptide fold change (10 µM) | probe-labelled cysteine peptide fold change (50 µM)
KLHL7_Q8IXQ5_44_TLCDVILMVQER (UniProt Q8IXQ5) | 0.233 | 0.388
LDHA_P00338_163_VIGSGCNLDSAR (UniProt P00338) | -0.0735 | 0.0826
KNL1_Q8NG31_1579_QVIQTHVNAGEAPDPVITSNVPCFHSIKPNLNNLNGK (UniProt Q8NG31) | -0.0675 | -0.759
KMT2D_O14686_214_TLQLLCPEHSEGAAYLEEAR (UniProt O14686) | -0.0158 | 0.2
KLHL42_Q9P2K6_399_QQMVSVEETIYIVGGCLHELGPNRR (UniProt Q9P2K6) | 0.305 | 0.379
KPNA6_O60684_427_YLVSLGCIKPLCDLLTVMDSK (UniProt O60684) | -0.101 | -0.85
LARS_Q9P2J5_554_NLETFCEETR (UniProt Q9P2J5) | -0.124 | -0.054
KIF5B_P33176_421_KCEEEIAK (UniProt P33176) | 0.0723 | -0.125
KIF4A_O95239_269_GLLCLGNVISALGDDK (UniProt O95239) | 0.287 | 0.214
KLHL30_Q0D2K2_231_AAHLPELLSLVHLDAVPRPCVQQLLASEPLIQESEACR (UniProt Q0D2K2) | -0.108 | -0.628
KIF2C_Q99661_560+572_TCMIATISPGISSCEYTLNTLR (UniProt Q99661) | 0.173 | -0.0157
LENG8_Q96PV6_643_GDHEEFNQCQTQLK (UniProt Q96PV6) | 0.166 | 0.0982
KIF2C_Q99661_473_SHACFQIILR (UniProt Q99661) | -0.148 | 0.0791
LCP1_P13796_206_KKLTPFTIQENLNLALNSASAIGCHVVNIGAEDLK (UniProt P13796) | 0.0815 | 0.223
KIF5B_P33176_174_FVCSPDEVMDTIDEGK (UniProt P33176) | -0.26 | -0.351
LARS_Q9P2J5_83+84_CCLFPFGLHCTGMPIK (UniProt Q9P2J5) | -0.0152 | -0.325
KLC1_Q07866_236_YEVAVPLCK (UniProt Q07866) | 0.0617 | -0.0397
LEMD2_Q8NC56_261_KTDEFCQAK (UniProt Q8NC56) | -0.103 | 0.03
LAS1L_Q9Y4W2_169_KMPHINDCRR (UniProt Q9Y4W2) | -0.13 | -0.679
LDAH_Q9H6V9_274_LTFYYGTIDPWCPK (UniProt Q9H6V9) | -0.145 | -0.0225
LCMT1_Q9UIC8_136_CKPPLSSPILELHSEDTLQMDGHILDSKR (UniProt Q9UIC8) | -0.102 | -0.544

Target | probe-labelled cysteine peptide fold change (10 µM) | probe-labelled cysteine peptide fold change (50 µM)
KRR1_Q13601_102_ALNEHHVNATLDLIEGSMTVCTTK (UniProt Q13601) | 0.0847 | 0.243
LARP7_Q4G0J3_148_CGNVVYISIPHYK (UniProt Q4G0J3) | 0.0026 | 0.0456
KIF5B_P33176_302_TTIVICCSPSSYNESETK (UniProt P33176) | -0.0386 | -0.0213
KIF5B_P33176_632_ELAACQLR (UniProt P33176) | -0.00725 | -0.0173
L3MBTL3_Q96JM7_723_WSTDEVSEFIQSLPGCEEHGK (UniProt Q96JM7) | 0.131 | 0.0663
LDHD_Q86WU2_274_LHPAPEATVAATCAFPSVQAAVDSTVHILQAAVPVAR (UniProt Q86WU2) | 0.28 | 0.729
LDLR_P01130_34_NEFQCQDGK (UniProt P01130) | -0.0424 | 0.0111
KTI12_Q96EK9_7_PLVVFCGLPYSGK (UniProt Q96EK9) | -0.0395 | -0.109
KTN1_Q86UP2_1136_EADEMHTLLQLECEK (UniProt Q86UP2) | 0.171 | 0.315
KIFC1_Q9BW19_557_GLQCGAPLSLVDLAGSER (UniProt Q9BW19) | -0.0151 | 0.167
KNTC1_P50748_1892_ALQCLFYLADK (UniProt P50748) | 0.24 | 0.196
LANCL1_O43813_252_LHSLVKPSVDYVCQLK (UniProt O43813) | 0.171 | -0.123
LDHB_P07195_36_ITVVGVGQVGMACAISILGK (UniProt P07195) | 0.0756 | -0.0044
KLHL26_Q53HC5_603_DLHFPESFAGIACAPVLLPR (UniProt Q53HC5) | -0.0715 | -0.178
KLHL42_Q9P2K6_444_SGLNLTCALHNDGIYIMSR (UniProt Q9P2K6) | -0.0699 | 0.0926
LEMD3_Q9Y2U8_547_LAQLAGDHECGSSSQR (UniProt Q9Y2U8) | -0.0495 | 0.0938
KNTC1_P50748_911_IIDLIDREQGEDCLLLLK (UniProt P50748) | 0.188 | 0.133
KRI1_Q8N9T8_667_LLGPTVMLGGCEFSR (UniProt Q8N9T8) | 0.253 | -0.845
KLHDC4_Q8TBB5_120_CAHQAVVVPQGGGQLWVFGGEFASPNGEQFYHYK (UniProt Q8TBB5) | -0.0523 | 0.0256
LASP1_Q14847_35_ACFHCETCK (UniProt Q14847) | 0.0524 | -0.129
KLHL22_Q53GT1_572+589_DCWEEGPQLDNSISGLAACVLTLPR (UniProt Q53GT1) | -0.193 | 0.316

Target | probe-labelled cysteine peptide fold change (10 µM) | probe-labelled cysteine peptide fold change (50 µM)
LDHD_Q86WU2_63_CEPPDAVVWPQNVEQVSR (UniProt Q86WU2) | -0.334 | 0.36
KPNB1_Q14974_359_AAGVCLMLLATCCEDDIVPHVLPFIK (UniProt Q14974) | -0.17 | -0.106
LEMD2_Q8NC56_355_VVCLESAHPR (UniProt Q8NC56) | -0.216 | 0.089
LARS_Q9P2J5_554_NLETFCEETRR (UniProt Q9P2J5) | -0.0731 | -0.201
KIFC1_Q9BW19_212_ACVLELEER (UniProt Q9BW19) | 0.0436 | 0.158
LAS1L_Q9Y4W2_60_AEWDQVTVYLFCDDHK (UniProt Q9Y4W2) | 0.0876 | 0.334
KLHL6_Q8WZ60_539_ALYAYSPLEDSWCLVTQLSHER (UniProt Q8WZ60) | 0.201 | 0.388
KLHL8_Q9P2G9_590_IFAVGGHNGNAYLNTVEAFDPVLNRWELVGSVSHCR (UniProt Q9P2G9) | 0.34 | 0.184
KLHL11_Q9NVR0_526_AVITCYDTETR (UniProt Q9NVR0) | 0.05 | -0.00351
LCP1_P13796_101_EGICAIGGTSEQSSVGTQHSYSEEEK (UniProt P13796) | -0.236 | -0.201
LARP1B_Q659C4_649_HSTNPPLECHVGWVMDSR, A0A3B3ISF0+Q659C4 | 0.0444 | 0.0204
LAS1L_Q9Y4W2_456_LFNCSASLDWPR (UniProt Q9Y4W2) | 0.14 | -0.529
LDHA_P00338_35_ITVVGVGAVGMACAISILMK (UniProt P00338) | -0.106 | 0.321
L1RE1_Q9UN81_111_CDQLEER (UniProt Q9UN81) | 0.0418 | 0.128
KIF2C_Q99661_245_ATLECHPLTMTDPIEEHR (UniProt Q99661) | 0.0578 | -0.0775
LCMT1_Q9UIC8_136_CKPPLSSPILELHSEDTLQMDGHILDSK (UniProt Q9UIC8) | -0.0708 | -0.113
KLHL7_Q8IXQ5_378_DSLAACAAEGK (UniProt Q8IXQ5) | -0.156 | -0.0752
KLHL20_Q9Y2M5_356_CGVGVSVLDDLLYAVGGHDGSSYLNSVER (UniProt Q9Y2M5) | 0.0197 | -0.33
KRIT1_O00522_297_SACEGDSELLSR (UniProt O00522) | -0.207 | -0.179
LAMC1_P11047_477_CKPGFFNLESSNPR (UniProt P11047) | 0.00393 | -0.0442
